Values from PubChem BioAssay AID1159578 (Peter MacCallum Cancer Centre, 2015).
Screen: 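Genome-wide hunt for genes controlling movement of lymphatic endothelial cells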 (primary screen). System: human lymphatic endothelial cells. Knock-down reagent: siRNA pool against human genes, 40 nM. Timing: 48 h after transfection. Measurement: 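High-content imaging of dye-stained cells in a scratch assay measures filled wound area and nuclei per well; duplicate means given as ratio to mock and robust z-score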. Reading the numbers: migration robust z-score: higher = faster migration into the scratch; nuclei per well: higher = more cells in the well. Active means: 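Pools averaging fewer than 3300 nuclei are never called; remaining pools count as changed when migration robust z lies outside -2 to 2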. Calls: active = migration changed; inactive = no migration change, or too few cells.
Shown is one part, drawn at random, of about 18,000 reagents tested. About 1,030 of them (5.7%) were called active. 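Inactive calls also include pools with fewer than 3300 nuclei, whose migration was not assessed.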 The raw values are shown without normalisation. Unmarked entries are inactive. Further read-outs or replicates are left out here.

UBIAD1
- migration robust z-score: 1.03
- nuclei per well, duplicate mean: 5036

GRIK3
- migration robust z-score: 0.21
- nuclei per well, duplicate mean: 4849

C14orf39
- migration robust z-score: 1.21
- nuclei per well, duplicate mean: 6546

FRAT1
- migration robust z-score: 0.16
- nuclei per well, duplicate mean: 5457

OR6C6
- migration robust z-score: 0.22
- nuclei per well, duplicate mean: 4584

DEFB136
- migration robust z-score: -0.37
- nuclei per well, duplicate mean: 5083

PLA2G6
- migration robust z-score: 0.9
- nuclei per well, duplicate mean: 5100

GABRA5
- migration robust z-score: -1.61
- nuclei per well, duplicate mean: 4272

DYRK1A
- migration robust z-score: -0.36
- nuclei per well, duplicate mean: 6475

CNNM4
- migration robust z-score: 0.46
- nuclei per well, duplicate mean: 6933

ALPK2
- migration robust z-score: -0.31
- nuclei per well, duplicate mean: 5624

CDK5
- migration robust z-score: -0.39
- nuclei per well, duplicate mean: 5704

SNAPIN
- migration robust z-score: -0.02
- nuclei per well, duplicate mean: 4940

ZMIZ2
- migration robust z-score: -1.26
- nuclei per well, duplicate mean: 5856

MAPDA
- migration robust z-score: 0.2
- nuclei per well, duplicate mean: 7214

NUFIP1
- migration robust z-score: 1.5
- nuclei per well, duplicate mean: 4996

RNASE11
- migration robust z-score: -0.35
- nuclei per well, duplicate mean: 6612

KRT37
- migration robust z-score: -0.78
- nuclei per well, duplicate mean: 6343

DCAF1
- migration robust z-score: -0.88
- nuclei per well, duplicate mean: 6163

NPRL3
- migration robust z-score: 0.14
- nuclei per well, duplicate mean: 5616

ZXDB
- migration robust z-score: -0.37
- nuclei per well, duplicate mean: 5520

Just “nuclei per well, duplicate mean” (3 entries from above):
CNNM4	6933
ALPK2	5624
CDK5	5704
